Source: the supplement of paper PMC11006884
This is a selection; strong and weak results do not stand in their true shares. Single values of this set are uncertain.

Amino acid sequences for entries named in this document (tags omitted). A change or cut given only in a name is not applied to a line headed by its entry.
UniProt Q9Y3L3: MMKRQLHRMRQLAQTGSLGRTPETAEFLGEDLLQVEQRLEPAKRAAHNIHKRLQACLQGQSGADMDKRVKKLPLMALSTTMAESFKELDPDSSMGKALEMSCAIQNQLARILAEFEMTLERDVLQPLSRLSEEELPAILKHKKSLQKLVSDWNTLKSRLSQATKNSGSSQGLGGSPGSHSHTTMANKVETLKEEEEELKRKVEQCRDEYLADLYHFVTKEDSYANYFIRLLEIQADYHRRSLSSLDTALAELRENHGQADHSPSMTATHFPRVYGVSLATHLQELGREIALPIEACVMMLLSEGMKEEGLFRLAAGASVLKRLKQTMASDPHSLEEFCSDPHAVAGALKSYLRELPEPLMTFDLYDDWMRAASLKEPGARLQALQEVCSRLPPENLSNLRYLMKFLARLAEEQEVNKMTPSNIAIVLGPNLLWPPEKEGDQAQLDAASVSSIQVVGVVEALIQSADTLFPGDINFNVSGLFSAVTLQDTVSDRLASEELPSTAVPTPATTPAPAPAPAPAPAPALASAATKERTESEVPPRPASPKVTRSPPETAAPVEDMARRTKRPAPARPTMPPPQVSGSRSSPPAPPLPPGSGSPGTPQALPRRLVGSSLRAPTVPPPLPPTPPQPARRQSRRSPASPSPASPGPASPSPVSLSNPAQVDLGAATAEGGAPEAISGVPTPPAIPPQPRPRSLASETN
UniProt Q9Y383: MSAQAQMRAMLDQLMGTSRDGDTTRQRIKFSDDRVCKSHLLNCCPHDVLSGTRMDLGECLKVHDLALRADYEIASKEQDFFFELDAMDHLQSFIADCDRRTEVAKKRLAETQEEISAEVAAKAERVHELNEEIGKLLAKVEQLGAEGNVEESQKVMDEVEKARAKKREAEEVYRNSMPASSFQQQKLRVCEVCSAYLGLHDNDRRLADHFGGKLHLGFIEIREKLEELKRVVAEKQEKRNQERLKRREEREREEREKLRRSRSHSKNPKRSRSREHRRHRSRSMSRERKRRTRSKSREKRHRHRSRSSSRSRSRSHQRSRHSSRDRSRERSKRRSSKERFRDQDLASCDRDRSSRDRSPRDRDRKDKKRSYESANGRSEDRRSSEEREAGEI
UniProt Q9Y3P9: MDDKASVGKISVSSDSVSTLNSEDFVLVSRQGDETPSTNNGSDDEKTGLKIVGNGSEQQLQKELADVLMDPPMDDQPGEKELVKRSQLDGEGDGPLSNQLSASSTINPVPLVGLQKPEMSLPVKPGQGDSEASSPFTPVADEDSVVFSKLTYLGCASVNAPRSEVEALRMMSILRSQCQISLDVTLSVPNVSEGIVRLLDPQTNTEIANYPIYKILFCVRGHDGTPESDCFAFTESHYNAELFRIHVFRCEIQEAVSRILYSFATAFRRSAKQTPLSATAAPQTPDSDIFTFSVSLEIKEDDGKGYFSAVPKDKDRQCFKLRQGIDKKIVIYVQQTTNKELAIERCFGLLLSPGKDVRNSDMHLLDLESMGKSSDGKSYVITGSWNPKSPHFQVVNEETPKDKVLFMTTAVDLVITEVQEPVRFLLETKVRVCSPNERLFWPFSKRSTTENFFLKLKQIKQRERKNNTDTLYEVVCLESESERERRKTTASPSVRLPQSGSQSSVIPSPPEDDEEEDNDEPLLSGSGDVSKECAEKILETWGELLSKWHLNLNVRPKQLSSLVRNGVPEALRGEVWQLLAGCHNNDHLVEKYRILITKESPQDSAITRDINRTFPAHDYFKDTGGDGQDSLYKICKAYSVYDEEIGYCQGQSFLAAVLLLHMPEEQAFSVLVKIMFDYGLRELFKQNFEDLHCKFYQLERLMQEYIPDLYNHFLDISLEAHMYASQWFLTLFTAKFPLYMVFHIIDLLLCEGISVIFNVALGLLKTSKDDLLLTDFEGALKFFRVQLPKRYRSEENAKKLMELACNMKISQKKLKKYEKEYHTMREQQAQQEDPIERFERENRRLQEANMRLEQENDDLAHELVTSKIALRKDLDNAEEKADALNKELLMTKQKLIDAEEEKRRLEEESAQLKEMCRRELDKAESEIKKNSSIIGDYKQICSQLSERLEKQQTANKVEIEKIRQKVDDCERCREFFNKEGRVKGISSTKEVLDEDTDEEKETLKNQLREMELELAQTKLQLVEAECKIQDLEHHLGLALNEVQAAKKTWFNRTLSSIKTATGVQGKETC
UniProt Q9UJS0: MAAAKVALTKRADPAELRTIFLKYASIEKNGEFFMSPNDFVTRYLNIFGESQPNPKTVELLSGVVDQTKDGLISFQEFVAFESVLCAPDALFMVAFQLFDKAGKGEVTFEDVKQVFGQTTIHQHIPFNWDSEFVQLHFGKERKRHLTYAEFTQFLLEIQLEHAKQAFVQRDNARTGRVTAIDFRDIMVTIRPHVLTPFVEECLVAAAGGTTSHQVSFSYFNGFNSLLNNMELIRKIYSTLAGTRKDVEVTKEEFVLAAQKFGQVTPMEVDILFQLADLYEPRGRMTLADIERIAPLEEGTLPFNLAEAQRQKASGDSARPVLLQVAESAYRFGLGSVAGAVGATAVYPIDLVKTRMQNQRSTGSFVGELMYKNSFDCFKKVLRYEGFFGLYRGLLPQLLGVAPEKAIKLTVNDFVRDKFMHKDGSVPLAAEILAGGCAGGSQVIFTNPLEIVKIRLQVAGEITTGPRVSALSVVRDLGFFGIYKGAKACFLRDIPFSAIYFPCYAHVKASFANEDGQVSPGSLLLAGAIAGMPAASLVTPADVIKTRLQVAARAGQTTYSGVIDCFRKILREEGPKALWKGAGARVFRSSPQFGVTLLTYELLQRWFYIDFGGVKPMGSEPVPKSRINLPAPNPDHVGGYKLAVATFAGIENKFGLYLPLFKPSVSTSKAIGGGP
UniProt Q9UNW1: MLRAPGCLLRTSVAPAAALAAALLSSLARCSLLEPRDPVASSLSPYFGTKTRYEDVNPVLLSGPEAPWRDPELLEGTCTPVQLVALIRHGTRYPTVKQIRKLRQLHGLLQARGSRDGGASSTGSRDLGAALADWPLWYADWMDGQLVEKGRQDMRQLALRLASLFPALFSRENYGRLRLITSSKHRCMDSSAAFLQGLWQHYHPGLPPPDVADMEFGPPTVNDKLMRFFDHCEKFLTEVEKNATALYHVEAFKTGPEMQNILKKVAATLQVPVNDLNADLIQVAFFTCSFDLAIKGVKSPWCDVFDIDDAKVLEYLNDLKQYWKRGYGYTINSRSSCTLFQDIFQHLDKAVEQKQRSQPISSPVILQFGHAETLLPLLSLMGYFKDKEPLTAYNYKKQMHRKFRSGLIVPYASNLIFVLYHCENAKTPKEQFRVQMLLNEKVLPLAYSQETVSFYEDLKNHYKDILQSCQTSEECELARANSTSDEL
UniProt Q9UL03, whole entry, looked up: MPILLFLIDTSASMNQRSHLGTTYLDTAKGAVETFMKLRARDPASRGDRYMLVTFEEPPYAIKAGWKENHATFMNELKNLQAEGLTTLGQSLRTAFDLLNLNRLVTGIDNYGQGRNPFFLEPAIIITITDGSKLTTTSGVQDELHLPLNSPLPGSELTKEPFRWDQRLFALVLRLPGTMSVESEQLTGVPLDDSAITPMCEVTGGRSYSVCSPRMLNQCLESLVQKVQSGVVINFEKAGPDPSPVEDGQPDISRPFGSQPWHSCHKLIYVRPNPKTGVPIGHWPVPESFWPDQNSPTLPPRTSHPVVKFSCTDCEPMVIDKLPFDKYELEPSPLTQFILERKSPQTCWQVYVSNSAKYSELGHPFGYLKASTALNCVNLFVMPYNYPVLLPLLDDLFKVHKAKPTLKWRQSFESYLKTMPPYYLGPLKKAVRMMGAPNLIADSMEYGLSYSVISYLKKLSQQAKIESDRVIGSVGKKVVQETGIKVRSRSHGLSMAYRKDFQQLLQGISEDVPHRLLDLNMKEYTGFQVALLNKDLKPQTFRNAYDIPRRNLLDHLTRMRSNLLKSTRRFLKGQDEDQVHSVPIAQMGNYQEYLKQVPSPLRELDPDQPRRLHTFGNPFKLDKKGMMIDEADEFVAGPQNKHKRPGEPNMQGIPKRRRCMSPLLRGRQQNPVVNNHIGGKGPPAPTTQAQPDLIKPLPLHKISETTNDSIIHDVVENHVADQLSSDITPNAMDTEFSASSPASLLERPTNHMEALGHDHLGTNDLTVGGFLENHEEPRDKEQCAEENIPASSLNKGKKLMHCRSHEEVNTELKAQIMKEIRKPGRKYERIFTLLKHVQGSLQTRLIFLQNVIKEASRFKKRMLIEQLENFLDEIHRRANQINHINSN
UniProt Q9ULP9: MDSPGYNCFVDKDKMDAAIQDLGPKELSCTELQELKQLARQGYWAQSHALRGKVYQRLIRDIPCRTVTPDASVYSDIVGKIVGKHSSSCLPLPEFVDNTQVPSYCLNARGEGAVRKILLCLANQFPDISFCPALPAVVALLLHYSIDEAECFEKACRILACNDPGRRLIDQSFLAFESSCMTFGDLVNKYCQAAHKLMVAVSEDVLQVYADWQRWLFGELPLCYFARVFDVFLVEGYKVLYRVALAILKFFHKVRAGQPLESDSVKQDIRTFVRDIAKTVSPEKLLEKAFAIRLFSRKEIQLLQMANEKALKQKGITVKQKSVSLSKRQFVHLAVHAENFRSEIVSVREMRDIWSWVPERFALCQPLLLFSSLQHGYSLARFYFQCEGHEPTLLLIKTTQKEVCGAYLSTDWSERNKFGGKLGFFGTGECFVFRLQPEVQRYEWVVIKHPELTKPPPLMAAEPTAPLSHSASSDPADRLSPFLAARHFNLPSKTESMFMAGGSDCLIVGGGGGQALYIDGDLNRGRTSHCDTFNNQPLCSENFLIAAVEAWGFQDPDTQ
UniProt Q9ULX6: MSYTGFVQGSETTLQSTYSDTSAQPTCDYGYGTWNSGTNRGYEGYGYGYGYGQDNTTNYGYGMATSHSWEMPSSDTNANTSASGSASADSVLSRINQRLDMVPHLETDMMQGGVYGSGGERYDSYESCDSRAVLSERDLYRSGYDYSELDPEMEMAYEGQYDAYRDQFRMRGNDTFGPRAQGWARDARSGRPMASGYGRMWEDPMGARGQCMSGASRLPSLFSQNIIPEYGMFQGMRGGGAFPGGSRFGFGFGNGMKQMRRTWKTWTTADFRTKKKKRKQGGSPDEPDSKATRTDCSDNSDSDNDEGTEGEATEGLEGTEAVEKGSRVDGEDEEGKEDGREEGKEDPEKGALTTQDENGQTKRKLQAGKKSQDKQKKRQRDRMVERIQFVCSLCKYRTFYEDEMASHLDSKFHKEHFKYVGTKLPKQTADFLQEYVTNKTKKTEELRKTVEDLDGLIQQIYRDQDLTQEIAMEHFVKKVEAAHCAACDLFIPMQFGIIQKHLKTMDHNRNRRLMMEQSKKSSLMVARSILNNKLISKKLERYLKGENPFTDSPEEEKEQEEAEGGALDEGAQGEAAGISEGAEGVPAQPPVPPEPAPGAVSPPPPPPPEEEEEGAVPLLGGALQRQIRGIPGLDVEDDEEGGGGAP
UniProt Q9Y230, whole entry: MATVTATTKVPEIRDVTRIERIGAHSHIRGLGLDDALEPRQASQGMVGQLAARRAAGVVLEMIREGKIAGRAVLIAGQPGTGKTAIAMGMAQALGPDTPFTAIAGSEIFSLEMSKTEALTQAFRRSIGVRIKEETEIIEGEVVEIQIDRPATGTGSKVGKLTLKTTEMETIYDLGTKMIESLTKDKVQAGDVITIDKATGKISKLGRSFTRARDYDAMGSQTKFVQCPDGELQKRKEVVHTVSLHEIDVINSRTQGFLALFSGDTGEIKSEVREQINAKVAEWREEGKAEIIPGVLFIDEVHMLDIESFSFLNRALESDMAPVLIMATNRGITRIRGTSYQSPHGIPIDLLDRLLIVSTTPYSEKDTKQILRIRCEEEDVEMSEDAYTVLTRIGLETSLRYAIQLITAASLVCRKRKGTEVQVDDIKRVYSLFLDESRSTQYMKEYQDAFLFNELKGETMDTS
UniProt Q9Y2X3: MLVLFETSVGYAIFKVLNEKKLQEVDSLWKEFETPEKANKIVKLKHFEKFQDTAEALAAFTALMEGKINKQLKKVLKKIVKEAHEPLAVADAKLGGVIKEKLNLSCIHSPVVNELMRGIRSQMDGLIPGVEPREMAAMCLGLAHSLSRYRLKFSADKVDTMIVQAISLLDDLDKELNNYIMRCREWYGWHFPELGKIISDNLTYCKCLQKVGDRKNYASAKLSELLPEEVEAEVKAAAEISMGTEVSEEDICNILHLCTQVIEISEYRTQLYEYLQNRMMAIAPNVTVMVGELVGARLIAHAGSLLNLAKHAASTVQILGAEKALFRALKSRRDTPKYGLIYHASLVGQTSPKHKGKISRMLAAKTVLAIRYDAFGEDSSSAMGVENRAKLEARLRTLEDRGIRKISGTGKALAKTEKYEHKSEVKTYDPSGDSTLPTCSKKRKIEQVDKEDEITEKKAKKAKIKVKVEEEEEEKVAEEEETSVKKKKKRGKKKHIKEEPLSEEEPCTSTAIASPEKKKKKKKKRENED

compound: COC(=O)/C=C/c1ccccc1 [methyl cinnamate]; assay: log2 ratio of iodoacetamide-alkyne labeling of the cysteine site, DMSO over compound (competition); higher = stronger covalent engagement of the cysteine by the compound, active = 1 or more; settings: 500 µM; treatment time 1 h; system: HEK293T cell lysate
Procedure, shortened: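 For each cysteine, the log2 competition ratio is mean control-channel reporter intensity over mean compound-channel reporter intensity. HEK293T lysate (2 mg/mL) was exposed to vehicle or electrophile (500 µM, 1 h, ambient temperature), labelled with iodoacetamide alkyne (1 h), clicked to sCIP-TMT reagents, digested overnight with trypsin at 37 °C, streptavidin-enriched and analysed by Orbitrap Eclipse LC-MS/MS with FAIMS and FragPipe. Cysteines quantified in only one of three replicates, each with duplicate channels, were excluded.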

log2 ratio of iodoacetamide-alkyne labeling, inactive:
SH3BP1 C338 (UniProt Q9Y3L3) 0.29
SRRM2 C872 (UniProt Q9UQ35) 0.481
LUC7L2 C59 (UniProt Q9Y383) 0.394
RABGAP1 C476 (UniProt Q9Y3P9) -0.0391
SLC25A13 C503 (UniProt Q9UJS0) 0.0376
UniProt Q9Y2D5_C296 0.254
MINPP1 C475 (UniProt Q9UNW1) 0.23
INTS6 C783 (UniProt Q9UL03) 0.554
TLN1 C1023 (UniProt Q9Y490) -0.137
UniProt Q9UPN4_C218 0.0397
ZMYND8 C196 (UniProt Q9ULU4) -0.149
TTF2 C785 (UniProt Q9UNY4) -0.119
TBC1D24 C8 (UniProt Q9ULP9) 0.0354
AKAP8L C128 (UniProt Q9ULX6) 0.0131
ACIN1 C546 (UniProt Q9UKV3) 0.424
RUVBL2 C227 (UniProt Q9Y230) 0.112
TRIM33 C461 (UniProt Q9UPN9) 0.153
CIZ1 C252 (UniProt Q9ULV3) 0.195
NCKAP1 C622 (UniProt Q9Y2A7) 0.2
UniProt Q9UI30_C33 0.0135
NOC2L C585 (UniProt Q9Y3T9) 0.217
NOP58 C205 (UniProt Q9Y2X3) 0.121

Two consecutive entries from above:
log2 ratio of iodoacetamide-alkyne labeling, inactive:
TTF2 C785 (UniProt Q9UNY4) -0.119
TBC1D24 C8 (UniProt Q9ULP9) 0.0354
